From PMC12332008, “Ribosome biogenesis in plants requires the nuclear envelope and mitochondria localized OPENER complex” (Nature Communications, 2025) come the findings set out here.

Chains of the proteins cited; added tags and fusions are not shown. Lines headed by an entry give the natural chain unless they say otherwise; changes in a name come on top.
UniProt Q9ZPR1: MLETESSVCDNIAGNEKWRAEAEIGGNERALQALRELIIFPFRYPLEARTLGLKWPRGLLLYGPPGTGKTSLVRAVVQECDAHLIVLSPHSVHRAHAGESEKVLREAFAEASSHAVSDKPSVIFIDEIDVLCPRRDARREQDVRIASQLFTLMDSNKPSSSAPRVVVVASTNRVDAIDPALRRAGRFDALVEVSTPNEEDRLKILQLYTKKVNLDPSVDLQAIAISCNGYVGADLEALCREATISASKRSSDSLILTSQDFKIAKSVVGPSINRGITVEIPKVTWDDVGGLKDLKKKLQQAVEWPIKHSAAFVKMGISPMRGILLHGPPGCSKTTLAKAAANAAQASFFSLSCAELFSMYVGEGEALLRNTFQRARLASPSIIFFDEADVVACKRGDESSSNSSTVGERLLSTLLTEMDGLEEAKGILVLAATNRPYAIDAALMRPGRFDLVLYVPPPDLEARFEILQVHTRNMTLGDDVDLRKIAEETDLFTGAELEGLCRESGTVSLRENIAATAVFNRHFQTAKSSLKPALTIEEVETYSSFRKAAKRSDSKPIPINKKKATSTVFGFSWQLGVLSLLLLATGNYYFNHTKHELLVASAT

No constants are given. Whether binding was seen depends on the method and setting. In cells and extracts the contact can be indirect. A result given as binding can be weak or reduced; the word gives no strength. Tags and fused reporters may be left off the sequences shown.

For the test, the target named is T1, cYFP-CIP111 (Arabidopsis thaliana) (UniProt Q9LET7).
T1 sequence: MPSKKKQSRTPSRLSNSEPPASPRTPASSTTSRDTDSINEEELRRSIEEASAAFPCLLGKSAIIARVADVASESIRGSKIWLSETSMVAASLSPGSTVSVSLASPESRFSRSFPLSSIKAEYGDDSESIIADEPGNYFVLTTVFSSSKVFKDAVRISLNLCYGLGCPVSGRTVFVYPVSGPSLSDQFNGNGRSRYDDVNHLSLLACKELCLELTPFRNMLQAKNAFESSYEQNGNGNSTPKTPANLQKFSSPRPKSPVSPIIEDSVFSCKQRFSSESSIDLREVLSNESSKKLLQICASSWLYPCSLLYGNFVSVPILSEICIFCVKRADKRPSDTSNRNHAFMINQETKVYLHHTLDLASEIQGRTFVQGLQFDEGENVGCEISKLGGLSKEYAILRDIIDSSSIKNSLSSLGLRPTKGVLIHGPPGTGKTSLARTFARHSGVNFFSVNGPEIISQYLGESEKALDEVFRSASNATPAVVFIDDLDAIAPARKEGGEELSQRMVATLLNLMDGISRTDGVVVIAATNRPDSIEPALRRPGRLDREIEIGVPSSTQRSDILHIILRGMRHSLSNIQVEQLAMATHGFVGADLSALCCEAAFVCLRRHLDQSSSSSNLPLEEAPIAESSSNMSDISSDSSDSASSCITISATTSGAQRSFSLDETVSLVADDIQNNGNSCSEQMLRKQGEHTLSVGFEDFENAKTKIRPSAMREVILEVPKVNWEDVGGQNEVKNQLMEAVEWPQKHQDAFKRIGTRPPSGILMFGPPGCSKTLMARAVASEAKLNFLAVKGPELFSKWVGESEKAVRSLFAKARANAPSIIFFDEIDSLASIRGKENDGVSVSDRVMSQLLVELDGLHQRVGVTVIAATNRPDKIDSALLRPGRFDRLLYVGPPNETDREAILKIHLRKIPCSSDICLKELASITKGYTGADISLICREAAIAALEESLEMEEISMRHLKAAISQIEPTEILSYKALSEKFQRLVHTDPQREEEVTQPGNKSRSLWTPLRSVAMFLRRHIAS
Description: split reporter; BiFC with nYFP210 and cYFP210 in Nicotiana benthamiana leaf epidermal cells.

Consider “nYFP-CDC48D (from UniProt Q9ZPR1) (enzyme)”, for which the binding entry was “binds”.
